Assay results: patent US20130287781A1
No constants are given. Whether binding was seen depends on the method and setting. Some entries that bind do so weakly or less than the wild type.

The chains behind the UniProt entries cited, without tags or fusion partners. Residues count along the entry.
UniProt Q9NQC3, residues 186-1004: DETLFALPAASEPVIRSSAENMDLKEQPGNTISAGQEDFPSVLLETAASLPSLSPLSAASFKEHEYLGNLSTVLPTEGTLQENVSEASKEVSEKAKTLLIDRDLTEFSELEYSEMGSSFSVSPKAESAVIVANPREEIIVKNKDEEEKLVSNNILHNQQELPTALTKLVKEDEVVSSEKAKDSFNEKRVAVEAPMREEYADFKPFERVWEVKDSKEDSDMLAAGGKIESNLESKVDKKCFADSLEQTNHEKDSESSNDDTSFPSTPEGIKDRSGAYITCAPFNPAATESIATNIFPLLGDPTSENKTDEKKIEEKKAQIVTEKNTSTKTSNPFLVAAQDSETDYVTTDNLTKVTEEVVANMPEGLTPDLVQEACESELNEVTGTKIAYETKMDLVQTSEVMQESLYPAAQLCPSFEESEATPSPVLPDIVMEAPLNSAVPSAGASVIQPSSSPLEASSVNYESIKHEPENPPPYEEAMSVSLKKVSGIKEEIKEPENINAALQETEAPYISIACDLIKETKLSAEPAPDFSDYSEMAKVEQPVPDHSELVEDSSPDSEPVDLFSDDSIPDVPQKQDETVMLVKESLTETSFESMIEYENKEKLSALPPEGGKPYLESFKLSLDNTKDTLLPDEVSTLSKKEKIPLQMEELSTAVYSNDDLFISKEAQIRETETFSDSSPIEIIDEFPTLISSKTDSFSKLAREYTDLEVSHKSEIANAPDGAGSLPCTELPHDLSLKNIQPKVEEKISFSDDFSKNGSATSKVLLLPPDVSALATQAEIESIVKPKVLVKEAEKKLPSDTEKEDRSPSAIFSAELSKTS

T1: peptide 16
T1 sequence (peptide, by the resolver, chain 1, biotin on the N-terminus of the SGSG linker): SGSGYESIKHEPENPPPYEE

T2: peptide 17
T2 sequence (peptide, by the resolver, chain 1, biotin on the N-terminus of the SGSG linker): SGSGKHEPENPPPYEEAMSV


Assays:
[1] = biological target: human Nogo-A extracellular domain expressed on the surface of CHO-K1 cells (human) (UniProt Q9NQC3); assay: flow cytometry on CHO-K1 cells expressing human Nogo-A, antibody at 100 mcg/ml, PE anti-human IgG
[2] = biological target: human Nogo-A extracellular domain expressed on the surface of CHO-K1 cells (human) (UniProt Q9NQC3); assay: flow cytometry on CHO-K1 cells expressing human Nogo-A extracellular domain, PE anti-human IgG
peptide 16 = biological target: T1, peptide 16; assay: condition: 5 ug/ml antibody (not on the sheet); peptide ELISA: biotinylated 16-mer peptide on streptavidin, kappa-chain peroxidase conjugate, Abs490
peptide 17 = biological target: T2, peptide 17; assay: as above

| Binder | binding [1] | binding [2] | binding (peptide 16) | binding (peptide 17) |
| --- | --- | --- | --- | --- |
| 2A10 (murine monoclonal antibody) (antibody, V domains shown) VH: QVQLQQPGTELVKPGASVKLSCKASGYTFTSYWMHWVKQRPGQGLEWIGNINPSNGGTNYNEKFKSKATLTVDKSSSTAYMQLSSLTSEDSAVYYCELGQGYWGQGTTLTVSS VL: DIVITQDELSNPVTSGESVSISCRSSKSLLYKDGKTYLNWFLQRPGQSPQLLIYLMSTRASGVSDRFSGSGSGTDFTLEISRVKAEDVGVYYCQQLVEYPLTFGAGTKLELK |  |  | no binding | no binding |
| H20L16 (antibody, human IgG1, kappa, V domains shown) VH: QVQLVQSGAEVKKPGASVKVSCKASGYTFTSYWMHWVRQAPGQGLEWIGNINPSNGGTNYNEKFKSKATMTRDTSTSTAYMELSSLRSEDTAVYYCELGQGYWGQGTLVTVSS VL: DIVMTQSPLSNPVTLGQPVSISCRSSKSLLYKDGKTYLNWFLQRPGQSPQLLIYLMSTRASGVPDRFSGGGSGTDFTLKISRVEAEDVGVYYCQQLVEYPLTFGQGTKLEIKR | binds | binds |  |  |

Continued, values first:

| binding [1] | binding [2] | binding (peptide 16) | binding (peptide 17) | Binder |
| --- | --- | --- | --- | --- |
| binds | binds |  |  | HcLc (chimera of 2A10: murine 2A10 VH and VL with human IgG constant regions) (antibody, V domains shown) VH: QVQLQQPGTELVKPGASVKLSCKASGYTFTSYWMHWVKQRPGQGLEWIGNINPSNGGTNYNEKFKSKATLTVDKSSSTAYMQLSSLTSEDSAVYYCELGQGYWGQGTLVTVSS VL: DIVITQDELSNPVTSGESVSISCRSSKSLLYKDGKTYLNWFLQRPGQSPQLLIYLMSTRASGVSDRFSGSGSGTDFTLEISRVKAEDVGVYYCQQLVEYPLTFGAGTKLELKR |
| binds | binds |  |  | H28L13 (antibody, human IgG1, kappa, V domains shown) VH: QVQLVQSGAEVKKPGASVKVSCKASGYTFTSYWMHWVRQAPGQGLEWIGNINPSNGGTNYNEKFKSKATMTRDTSTSTAYMELSSLRSEDTAVYYCELMQGYWGQGTLVTVSS VL: DIVMTQSPLSLPVTLGQPASISCRSSKSLLYKDGKTYLNWFQQRPGQSPQLLIYLMSTRASGVPDRFSGGGSGTDFTLKISRVEAEDVGVYYCQQLVEYPLTFGQGTKLEIKR |
| binds | binds |  |  | H27L16 (antibody, human IgG1, kappa, V domains shown) VH: QVQLVQSGAEVKKPGASVKVSCKASGYTFTSYWMHWVKQRPGQGLEWIGNINPSNGGTNYNEKFKSKATLTVDKSTSTAYMELSSLRSEDTAVYYCELMQGYWGQGTLVTVSS VL: DIVMTQSPLSNPVTLGQPVSISCRSSKSLLYKDGKTYLNWFLQRPGQSPQLLIYLMSTRASGVPDRFSGGGSGTDFTLKISRVEAEDVGVYYCQQLVEYPLTFGQGTKLEIKR |
